These results are taken from paper PMC8850199, “Structure, mechanism and lipid-mediated remodeling of the mammalian Na^+/H^+ exchanger NHA2” (Nature Structural & Molecular Biology, 2022).

These are yes or no findings as the source states them, for the method shown. Some results given as binding are weak or reduced against the parent protein; the word gives no strength. Sequences can lack the tags named with a protein.

In the assay the target is bison NHA2ΔN Asp330Ala-Gln331Ala double mutant, GFP fusion (Bison bison). Nature of the assay: SEC; FSEC (GFP fluorescence) of DDM-CHS solubilized membranes from S. cerevisiae AB11c; Superose 6 10/300, 20 mM Tris-HCl pH 7.5, 150 mM NaCl, 0.03% DDM. Background: SEC sorts molecules by how far they enter the pores of the column.

B1: bison NHA2ΔN Asp330Ala-Gln331Ala double mutant, GFP fusion (domain or fragment)
chain: RRRQIHACPPRGLLARVITNVTMVILLWAVVWSVTGSECLPGGNLFGIIMLFYCAIIGGKLFGLIKLPTLPPLPPLLGMLLAGFLIRNVPVISDNIQIKHKWSSALRSIALSVILVRAGLGLDSNALKKLKGVCVRLSLGPCLIEACTSAVLAYFLMGLPWQWGFMLGFVLGAVSPAVVVPSMLLLQEGGYGVEKGIPTLLMAAGSFDDILAITGFNTCLGMAFSTGSTVFNVLKGVLEVIIGVVTGLVLGFFIQYFPSSAADNLVWKRAFLVLGLSVLAVFSSTYFGFPGSGGLCTLVTAFLAGRGWASTKTDVEKVIAVAWDIFQPLLFGLIGAEVLITALRPETIGLCVATLGIAVLIRILVTYLMVCFAGFNIKEKIFISFAWLPKATVQAAIGSVALDTARSHGEKQLEGYGMDVLTVAFLSIIITAPVGSLLIGLLGPRLLQKAEQNKDEEDQGETSIQV
For the molecule B1, the binding entry is “binds”.
